Experimental data reported in paper PMC7335187, “Super-assembly of ER-phagy receptor Atg40 induces local ER remodeling at contacts with forming autophagosomal membranes” (Nature Communications, 2020).
Residue numbers refer to the chain shown, from its start. Names may count otherwise. These are yes or no findings as the source states them, for the method shown. Binding seen in cells or lysates may run through a third protein. Some binding calls cover weakened binding; strength is not graded here. Sequences can lack the tags named with a protein. Blank lines part the entries; values can stand above or below the binder they belong to.

Columns and labels:
Atg8-GFP (S. cerevisiae) [1] = target: T1, Atg8-GFP (S. cerevisiae) (UniProt P38182); assay: co-IP; Supplementary Fig. 2a (a blot; legend not shown); the methods tell only of immunoprecipitation of Atg8-GFP from yeast lysates
T1 sequence: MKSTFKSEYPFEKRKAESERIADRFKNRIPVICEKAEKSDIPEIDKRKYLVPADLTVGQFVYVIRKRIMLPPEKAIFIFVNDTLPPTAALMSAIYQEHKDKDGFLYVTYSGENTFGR

Atg8-GFP (S. cerevisiae) [2] = target: T1, Atg8-GFP (S. cerevisiae); assay: co-IP; lysates of ATG8-GFP atg4Δ atg40Δ cells expressing Atg40-HA, rapamycin 6 h; Atg8-GFP precipitated with GFP nanobody-conjugated magnetic beads, 2 h at 4 °C; IP buffer 50 mM Tris-HCl pH 8.0, 150 mM NaCl, 1 mM EDTA, 10% glycerol, 0.5% Triton X-100; blots for GFP and HA
Atg40-HA (S. cerevisiae) = Atg40-HA (S. cerevisiae) (UniProt Q99325); assay: co-IP; first step: lysates of cells coexpressing Atg40-FLAG, Atg40-GFP and Atg40-HA (ATG40 promoter), rapamycin 6 h, 0.5% Triton X-100; anti-FLAG antibody-conjugated beads; wild-type, atg1Δ, atg2Δ and atg8Δ cells
[3] = target: Atg40 AIM mutant (Y242A M245A), tagged with FLAG, GFP or HA (S. cerevisiae) (UniProt Q99325); assay: as above
[4] = target: Atg40 AIM mutant (Y242A M245A), tagged with FLAG, GFP or HA (S. cerevisiae) (UniProt Q99325); assay: co-IP; two-step: anti-FLAG beads, elution with 3 x FLAG peptide, then GFP nanobody-conjugated beads, blot for Atg40-HA; wild-type cells; larger oligomers significantly decreased in atg1Δ, atg2Δ and atg8Δ cells

B3: Atg40 AIM mutant (Y242A M245A), tagged with FLAG, GFP or HA (protein, UniProt Q99325 1-256)
chain: MFNLILWPLFLLTSVAIPLQLTLEVVYLTSSVDFSKASAAKTATSLGQSPVVITIYKSLLKYWSLYEFIHFIYLYTPIDAFLNFLPFTSLLMSFGSICLTRELVYDFIAFMESQNKLTGFLNKITEPNFNSYLLFSSIYNIWFADDTNDKFLFGKLTQILISVTKRYEFPRTFYLAKVSDFLQNLILTRLRPFVTEQPQGDKNRYQNGDRESTKNGAAYQKSSQQSSSFEQNFTSTEFPNDADFAEDILDETTELD
binding [3]: binds
binding [4]: binds

B4: Atg40 (as compared in Supplementary Fig. 2a) (protein, UniProt Q99325 1-256)
chain: B3 chain with A242Y, A245M
binding (Atg8-GFP (S. cerevisiae) [1]): binds

Other lines, results leading:

binding (Atg8-GFP (S. cerevisiae) [1]): binds
B1: TMD-40C (protein, UniProt P33754 24-58; Q99325 194-256)
chain: ETKSISVYTPLIYVFILVVSLVMFASSYRKKQAKKVTEQPQGDKNRYQNGDRESTKNGAAYQKSSQQSSSFEQNFTSTEFPNDYDFMEDILDETTELD

binding (Atg8-GFP (S. cerevisiae) [2]): binds
binding (Atg40-HA (S. cerevisiae)): binds
B2: Atg40-HA (protein, UniProt Q99325 1-256)
chain: B3 chain with A242Y, A245M
